No constants are given. Whether binding was seen depends on the method and setting. In cells and extracts the contact can be indirect. Some binding calls cover weakened binding; strength is not graded here. Tags and fused reporters may be left off the sequences shown.
Legend:
Test in all cases: co-IP; GFP-tagged InSyn1 constructs co-expressed with HA-tagged proteins in HEK293T cells; lysate (25 mM Hepes pH 7.4, 150 mM NaCl, 1 mM EDTA, 1% Nonidet P-40) incubated with GFP-Trap agarose; beads washed with lysis buffer; immunoblot with anti-HA and anti-GFP
[1] = target: T1, InSyn1-GFP (full-length Inhibitory Synaptic protein 1 fused to GFP) (mouse) (UniProt Q8CD60)
T1 sequence: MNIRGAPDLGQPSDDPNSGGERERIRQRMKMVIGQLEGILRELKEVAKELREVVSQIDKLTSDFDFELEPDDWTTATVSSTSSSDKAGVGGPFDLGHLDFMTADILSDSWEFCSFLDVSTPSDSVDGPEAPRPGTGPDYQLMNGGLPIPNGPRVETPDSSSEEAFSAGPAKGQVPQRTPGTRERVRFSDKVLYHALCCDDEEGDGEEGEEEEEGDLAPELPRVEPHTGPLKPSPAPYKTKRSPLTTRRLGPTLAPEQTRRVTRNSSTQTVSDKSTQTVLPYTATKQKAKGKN

[2] = target: T2, InSyn1ΔC-GFP (InSyn1 lacking a.a. 181-292, fused to GFP) (mouse) (UniProt Q8CD60)
T2 sequence: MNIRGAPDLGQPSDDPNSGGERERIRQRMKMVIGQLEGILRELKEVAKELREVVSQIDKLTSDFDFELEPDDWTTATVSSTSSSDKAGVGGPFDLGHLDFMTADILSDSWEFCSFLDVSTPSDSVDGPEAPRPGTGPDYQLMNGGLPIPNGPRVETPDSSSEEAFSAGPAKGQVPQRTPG

[3] = target: T3, InSyn1ΔM1-GFP (InSyn1 lacking a.a. 61-87, fused to GFP) (mouse) (UniProt Q8CD60)
T3 sequence: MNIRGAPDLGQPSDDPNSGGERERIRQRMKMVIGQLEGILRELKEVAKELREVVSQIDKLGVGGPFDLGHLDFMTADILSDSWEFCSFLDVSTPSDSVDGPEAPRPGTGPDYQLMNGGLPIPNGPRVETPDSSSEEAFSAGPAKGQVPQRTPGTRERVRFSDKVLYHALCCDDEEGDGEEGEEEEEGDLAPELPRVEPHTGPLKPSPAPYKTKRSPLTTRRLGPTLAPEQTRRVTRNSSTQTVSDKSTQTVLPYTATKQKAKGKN

[4] = target: T4, InSyn1ΔM2-GFP (InSyn1 lacking a.a. 88-180, fused to GFP) (mouse) (UniProt Q8CD60)
T4 sequence: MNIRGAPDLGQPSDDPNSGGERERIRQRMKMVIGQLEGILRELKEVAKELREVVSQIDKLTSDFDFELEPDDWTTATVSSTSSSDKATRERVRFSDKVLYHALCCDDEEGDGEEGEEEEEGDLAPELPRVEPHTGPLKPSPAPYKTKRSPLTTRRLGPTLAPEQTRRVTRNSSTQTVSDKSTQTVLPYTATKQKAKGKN

[5] = target: T5, InSyn1ΔN-GFP (InSyn1 lacking a.a. 1-60, fused to GFP) (mouse) (UniProt Q8CD60)
T5 sequence: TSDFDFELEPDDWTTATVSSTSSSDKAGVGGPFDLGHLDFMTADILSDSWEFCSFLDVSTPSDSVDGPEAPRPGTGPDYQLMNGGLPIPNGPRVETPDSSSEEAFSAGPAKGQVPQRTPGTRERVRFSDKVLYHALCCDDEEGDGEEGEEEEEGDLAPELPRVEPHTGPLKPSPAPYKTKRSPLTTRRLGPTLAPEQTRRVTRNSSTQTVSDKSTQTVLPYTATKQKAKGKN

Measured: binding

B1: HA-α1-syntrophin (protein, UniProt Q13424 1-505)
chain: MASGRRAPRTGLLELRAGAGSGAGGERWQRVLLSLAEDVLTVSPADGDPGPEPGAPREQEPAQLNGAAEPGAGPPQLPEALLLQRRRVTVRKADAGGLGISIKGGRENKMPILISKIFKGLAADQTEALFVGDAILSVNGEDLSSATHDEAVQVLKKTGKEVVLEVKYMKDVSPYFKNSTGGTSVGWDSPPASPLQRQPSSPGPTPRNFSEAKHMSLKMAYVSKRCTPNDPEPRYLEICSADGQDTLFLRAKDEASARSWATAIQAQVNTLTPRVKDELQALLAATSTAGSQDIKQIGWLTEQLPSGGTAPTLALLTEKELLLYLSLPETREALSRPARTAPLIATRLVHSGPSKGSVPYDAELSFALRTGTRHGVDTHLFSVESPQELAAWTRQLVDGCHRAAEGVQEVSTACTWNGRPCSLSVHIDKGFTLWAAEPGAARAVLLRQPFEKLQMSSDDGASLLFLDFGGAEGEIQLDLHSCPKTIVFIIHSFLSAKVTRLGLLA
not listed: [5]
binds: all other assays above

B2: HA-β-dystrobrevin (protein, UniProt O60941 1-627)
chain: MIEESGNKRKTMAEKRQLFIEMRAQNFDVIRLSTYRTACKLRFVQKRCNLHLVDIWNMIEAFRDNGLNTLDHTTEISVSRLETVISSIYYQLNKRLPSTHQISVEQSISLLLNFMIAAYDSEGRGKLTVFSVKAMLATMCGGKMLDKLRYVFSQMSDSNGLMIFSKFDQFLKEVLKLPTAVFEGPSFGYTEHSVRTCFPQQRKIMLNMFLDTMMADPPPQCLVWLPLMHRLAHVENVFHPVECSYCRCESMMGFRYRCQQCHNYQLCQNCFWRGHAGGPHSNQHQMKEHSSWKSPAKKLSHAISKSLGCVPTREPPHPVFPEQPEKPLDLAHIVPPRPLTNMNDTMVSHMSSGVPTPTKRLQYSQDIPSHLADEHALIASYVARLQHCARVLDSPSRLDEEHRLIARYAARLAAEAGNVTRPPTDLSFNFDANKQQRQLIAELENKNREILQEIQRLRLEHEQASQPTPEKAQQNPTLLAELRLLRQRKDELEQRMSALQESRRELMVQLEELMKLLKEEEQKQAAQATGSPHTSPTHGGGRPMPMPVRSTSAGSTPTHCPQDSLSGVGGDVQEAFAQGTRRNLRNDLLVAADSITNTMSSLVKELHSAEEGAEEEEEKMQNGKDRG
not listed: [5]
binds: all other assays above

B3: HA-gephyrin (protein, UniProt Q8BUV3 1-769)
chain: MATEGMILTNHDHQIRVGVLTVSDSCFRNLAEDRSGINLKDLVQDPSLLGGTISAYKIVPDEIEEIKETLIDWCDEKELNLILTTGGTGFAPRDVTPEATKEVIEREAPGMALAMLMGSLNVTPLGMLSRPVCGIRGKTLIINLPGSKKGSQECFQFILPALPHAIDLLRDAIVKVKEVHDELEDLPSPPPPLSPPPTTSPHKQTEDKGVQCEEEEEEKKDSGVASTEDSSSSHITAAALAAKIPDSIISRGVQVLPRDTASLSTTPSESPRAQATSRLSTASCPTPKQIRRPDESKGVASRVGSLKARLPSCSSTYSVSEVQSRCSSKENILRASHSAVDITKVARRHRMSPFPLTSMDKAFITVLEMTPVLGTEIINYRDGMGRVLAQDVYAKDNLPPFPASVKDGYAVRAADGPGDRFIIGESQAGEQPTQTVMPGQVMRVTTGAPIPCGADAVVQVEDTELIRESDDGTEELEVRILVQARPGQDIRPIGHDIKRGECVLAKGTHMGPSEIGLLATVGVTEVEVNKFPVVAVMSTGNELLNPEDDLLPGKIRDSNRSTLLATIQEHGYPTINLGIVGDNPDDLLNALNEGISRADVIITSGGVSMGEKDYLKQVLDIDLHAQIHFGRVFMKPGLPTTFATLDIDGVRKIIFALPGNPVSAVVTCNLFVVPALRKMQGILDPRPTIIKARLSCDVKLDPRPEYHRCILTWHHQEPLPWAQSTGNQMSSRLMSMRSANGLLMLPPKTEQYVELHKGEVVDVMVIGRL
binds: all assays above
